PubChem BioAssay AID504808, Drosophila RNAi Screening Center | 2011

Aim: 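Genes whose loss lifts activity of an E2F-responsive reporter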 (primary screen)
Cell system: Drosophila S2 cells
Reagents: long dsRNA against Drosophila genes
Measured: 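Dual luciferase plate measurements; E2F-specific signal taken as firefly over Renilla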
Direction: E2F firefly: higher = more E2F reporter activity; Renilla normaliser: higher = more normaliser reporter signal
Hit rule: 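a knock-down counted as active when the firefly/Renilla E2F signal rose above 50%, a threshold chosen arbitrarily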
In all, the deposit lists about 21,000 reagents; this is an unselected part of those with a known target gene and a result. Of all reagents, 18 (0.084%) were called active. 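Raw counts without plate normalisation, one of two replicates; the ratio scores behind the calls were not deposited.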 The numbers tell different reagents against one gene apart. Not stated in the record: the amount of reagent, the time to read-out.

Which result is listed for side-III (sidestep III) #1?
E2F firefly, rep 1: 1.53e5; Renilla normaliser, rep 1: 6748; Outcome: inactive

What is on record for side-III (sidestep III) #2?
E2F firefly, rep 1: 92875; Renilla normaliser, rep 1: 5760; Outcome: inactive

For side-III (sidestep III) #3, what does the deposit list?
E2F firefly, rep 1: 1.29e5; Renilla normaliser, rep 1: 7979; Outcome: inactive

For Akap200 (A kinase anchor protein 200), how do the results read?
E2F firefly, rep 1: 1.06e5; Renilla normaliser, rep 1: 3624; Outcome: inactive

What did the screen give for CSN4 (COP9 signalosome subunit 4)?
E2F firefly, rep 1: 1.35e5; Renilla normaliser, rep 1: 4437; Outcome: inactive

For Pcmt (Protein-L-isoaspartate (D-aspartate) O-methyltransferase), what was measured?
E2F firefly, rep 1: 1.46e5; Renilla normaliser, rep 1: 6372; Outcome: inactive

For CG18682 (retired record) #1, what does the deposit list?
E2F firefly, rep 1: 1.11e5; Renilla normaliser, rep 1: 5553; Outcome: inactive

With CG18682 (retired record) #2, what was measured?
E2F firefly, rep 1: 1.11e5; Renilla normaliser, rep 1: 5409; Outcome: inactive

What is on record for CG5004 #1?
E2F firefly, rep 1: 1.51e5; Renilla normaliser, rep 1: 6161; Outcome: inactive

How did the screen score CG5004 #2?
E2F firefly, rep 1: 2.29e5; Renilla normaliser, rep 1: 7531; Outcome: inactive

For CG5004 #3, how do the results read?
E2F firefly, rep 1: 91115; Renilla normaliser, rep 1: 6258; Outcome: inactive

What did the screen give for Gal (beta galactosidase)?
E2F firefly, rep 1: 1.35e5; Renilla normaliser, rep 1: 4722; Outcome: inactive

For CG6149, what was measured?
E2F firefly, rep 1: 1.12e5; Renilla normaliser, rep 1: 6459; Outcome: inactive

Which result is listed for CG34331?
E2F firefly, rep 1: 1.32e5; Renilla normaliser, rep 1: 6523; Outcome: inactive

How did the screen score CG9525?
E2F firefly, rep 1: 1.50e5; Renilla normaliser, rep 1: 5179; Outcome: inactive

With Trpgamma (Transient receptor potential cation channel gamma), what does the deposit list?
E2F firefly, rep 1: 91779; Renilla normaliser, rep 1: 4326; Outcome: inactive

With E(spl)m8-HLH (Enhancer of split m8, helix-loop-helix), how do the results read?
E2F firefly, rep 1: 1.20e5; Renilla normaliser, rep 1: 6699; Outcome: inactive

Which result is listed for CG11162?
E2F firefly, rep 1: 1.17e5; Renilla normaliser, rep 1: 6054; Outcome: inactive

Which result is listed for CG18537?
E2F firefly, rep 1: 1.39e5; Renilla normaliser, rep 1: 5106; Outcome: inactive

For CG5235, what was measured?
E2F firefly, rep 1: 1.96e5; Renilla normaliser, rep 1: 8603; Outcome: inactive

Which result is listed for Actn3 (alpha actinin 3)?
E2F firefly, rep 1: 1.24e5; Renilla normaliser, rep 1: 5990; Outcome: inactive

What did the screen give for CG15071?
E2F firefly, rep 1: 1.43e5; Renilla normaliser, rep 1: 4788; Outcome: inactive

With Mtl (Mig-2-like), how do the results read?
E2F firefly, rep 1: 1.22e5; Renilla normaliser, rep 1: 6091; Outcome: inactive

With CG10562, what was measured?
E2F firefly, rep 1: 2043; Renilla normaliser, rep 1: 1056; Outcome: inactive

With CG15362, what was measured?
E2F firefly, rep 1: 1.74e5; Renilla normaliser, rep 1: 5975; Outcome: inactive

What did the screen give for Dscam3 (Down syndrome cell adhesion molecule 3) #1?
E2F firefly, rep 1: 1.22e5; Renilla normaliser, rep 1: 6129; Outcome: inactive

For Dscam3 (Down syndrome cell adhesion molecule 3) #2, what was measured?
E2F firefly, rep 1: 1.08e5; Renilla normaliser, rep 1: 6907; Outcome: inactive

What is on record for Cp19 (Chorion protein 19)?
E2F firefly, rep 1: 92191; Renilla normaliser, rep 1: 3851; Outcome: inactive

Not a retest: 2 of the entries above.
Pcmt (Protein-L-isoaspartate (D-aspartate) O-methyltransferase): E2F firefly, rep 1 = 1.46e5; Renilla normaliser, rep 1 = 6372; Outcome = inactive
CG18682 (retired record) #1: E2F firefly, rep 1 = 1.11e5; Renilla normaliser, rep 1 = 5553; Outcome = inactive
